# Reference: article PMC7819943, “Rice protein-binding microarrays: a tool to detect cis-acting elements near promoter regions in rice”
# Chains of the proteins cited; added tags and fusions are not shown.
# UniProt Q0JBA9, entry or part of it: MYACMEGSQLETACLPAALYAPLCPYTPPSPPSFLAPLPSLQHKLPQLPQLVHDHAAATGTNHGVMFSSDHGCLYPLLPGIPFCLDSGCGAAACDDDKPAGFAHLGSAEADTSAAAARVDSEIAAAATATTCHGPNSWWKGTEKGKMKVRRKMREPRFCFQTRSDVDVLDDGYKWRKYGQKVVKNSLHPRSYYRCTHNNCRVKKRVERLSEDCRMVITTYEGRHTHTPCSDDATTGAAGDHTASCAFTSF
# The other results are listed elsewhere or left out.
# Molecular target: OsWRKY34 (Oryza sativa, UniProt Q0JBA9 1-250)
# Assay: protein-binding microarray (RPBM); PBS, 2% BSA, 51.3 ng/ul salmon testes DNA, 50 uM zinc acetate, 200 nM TF, 25 C, 1 h; high values mean tight binding
# Conditions: protein: recombinant; tags: N-terminal polyhistidine and DsRed monomer fusion (pET32a); label: CyDye5-dUTP incorporated in the synthesized complementary strand; 3' TTTTT single-stranded linker to array surface; dsDNA, one strand shown
# Summary of the method: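 The binding signal is fluorescence intensity per feature, in arbitrary units, read on an Axon 4000B scanner. Polyhistidine- and DsRed-tagged transcription factors (N-terminal fusions) from E. coli BL21-CodonPlus were purified on Ni–NTA and applied at 200 nM for 1 h at 25 °C to a double-stranded, BSA-blocked custom Agilent array in buffer with 50 µM zinc acetate.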
row,Sequence,binding signal
1,CATCCATCATCATTGAACGGCCCACCAGAAAGCCTAGGCCCGGAGTCACCTAGTGCAG,8400 fluorescence intensity (a.u.)
2,TGTATTTCTATATGGACTCTATTTTTTCTTTTTCTCCGATCGGAGTCACCTAGTGCAG,8770 fluorescence intensity (a.u.)
3,ATCGCTTACTGTGACAACATCTCCAGCGTCTACATGTCCACGGAGTCACCTAGTGCAG,8180 fluorescence intensity (a.u.)
4,TTTATTTTATTTGTGACTTGCTTTATTATCATAAGTACTTCGGAGTCACCTAGTGCAG,8180 fluorescence intensity (a.u.)
5,TTATTACTCCTTGTCACAGTTTATAGGGTGTTCTTTTACACGGAGTCACCTAGTGCAG,8200 fluorescence intensity (a.u.)
6,GACAGTTTTACACCATTTTTTCACTTTTTTGTTAATATTTCGGAGTCACCTAGTGCAG,12900 fluorescence intensity (a.u.)
7,CTTCTTCTTCTTCACATTGACCATTTCCTCGCCTCTCAACCGGAGTCACCTAGTGCAG,8860 fluorescence intensity (a.u.)
8,GAATGACCTTTGACTTTCTTCCTTCGATTAGCTAGGGTGGCGGAGTCACCTAGTGCAG,8950 fluorescence intensity (a.u.)
9,GTGGTGGTGGTGCAGCTTCTCTCCTCTTCTGAATCTTCTCCGGAGTCACCTAGTGCAG,14600 fluorescence intensity (a.u.)
10,ATGCTCGATCACATGCTTAATTCTTAGCTTTGTCCTAGTTCGGAGTCACCTAGTGCAG,8230 fluorescence intensity (a.u.)
11,GCTTTCAAATTTTACGATAGTTTTCAGTTTTGCACTGTATCGGAGTCACCTAGTGCAG,8110 fluorescence intensity (a.u.)
12,CGACGGGCGGGTGTGGGGATTCGCGGCCTTGAGGGTTCGTCGGAGTCACCTAGTGCAG,9660 fluorescence intensity (a.u.)
13,AACTTTTGCATCTACTGAATTCTCTTGCGTTACCGTTCCACGGAGTCACCTAGTGCAG,8920 fluorescence intensity (a.u.)
14,TTTTTTCTATTATTTTTTTCATTTTTCTTATTTCAGTTCCCGGAGTCACCTAGTGCAG,8250 fluorescence intensity (a.u.)
15,AGATATGCATTATTTTTAAAAACCATTTTCACCATAATGTCGGAGTCACCTAGTGCAG,8630 fluorescence intensity (a.u.)
16,AGTTTTTGGATTTCCTGTTTCGCATCTGACGGTTCGGCTGCGGAGTCACCTAGTGCAG,8180 fluorescence intensity (a.u.)
17,GCCTCTCCTTGCTTGCGTGCTCACTGTCGCTGACTGCTCTCGGAGTCACCTAGTGCAG,8240 fluorescence intensity (a.u.)
18,AACTCTTTATATTTTTTCACATGGTTAGTATATATCGTAGCGGAGTCACCTAGTGCAG,9790 fluorescence intensity (a.u.)
19,CTGGTTCTTCTTCCTCGCATAGATTCCTCAGAACACAAACCGGAGTCACCTAGTGCAG,8130 fluorescence intensity (a.u.)
20,AGAGCGAACGGCCGTCTGCCACGTCATTTTCGCCGCCCTCCGGAGTCACCTAGTGCAG,8190 fluorescence intensity (a.u.)
21,GCCTCGCTGCCTGCCGCTCCACCGATCGCTCGCTCGCTTCCGGAGTCACCTAGTGCAG,10100 fluorescence intensity (a.u.)

row,Sequence,binding signal
1,ATGCTACCACGCCACATCATTACCCACTACCAAAAATTACCGGAGTCACCTAGTGCAG,8800 fluorescence intensity (a.u.)
2,GTGGGTTCTTTTTCTCTCTCTTTTCACTCCTTTTCCTACACGGAGTCACCTAGTGCAG,11200 fluorescence intensity (a.u.)
3,GTTGGAGTTGTTTTTTTTTTTTTTTGACTAAAATCCCTCACGGAGTCACCTAGTGCAG,9620 fluorescence intensity (a.u.)
4,CTCGGCCTGGTACCCATCCCCGCCCGCGCCATCTTGCGCCCGGAGTCACCTAGTGCAG,8910 fluorescence intensity (a.u.)
5,TGCCATGGGGAGCTTTCATGTTTTTTTCTCCCTCTCTGAACGGAGTCACCTAGTGCAG,8480 fluorescence intensity (a.u.)
6,TAAATCCTACGTGGATCATCTACCGCCCATTATTGTACCTCGGAGTCACCTAGTGCAG,8110 fluorescence intensity (a.u.)
7,ATTCCGTTAGCATTTGTCCTGCCATGGCCTATTCTGCCAGCGGAGTCACCTAGTGCAG,10400 fluorescence intensity (a.u.)
8,GCTCCAATTTCACGCTGCTCTCGGCCGTCGGATCGCGCGCCGGAGTCACCTAGTGCAG,8850 fluorescence intensity (a.u.)
9,AGTAACCTACGAAGCCTGACCTGAGACACCGGTTTGACCGCGGAGTCACCTAGTGCAG,9320 fluorescence intensity (a.u.)
10,CACGGTATAAAAGTAAAACCCGCATGTGCCTTGTAGTTCTCGGAGTCACCTAGTGCAG,8060 fluorescence intensity (a.u.)
11,TGGTTTTTCATTTTGTGTGCGTGTGCACGTTTGTGTGGGGCGGAGTCACCTAGTGCAG,12700 fluorescence intensity (a.u.)
12,GTGTGTGAATGACTAACGAGTCCCGCGTACATGTTTTTAACGGAGTCACCTAGTGCAG,9240 fluorescence intensity (a.u.)
13,ACCGCCTATAAAACCACCACGTCGGACGTCGCCACCTCCGCGGAGTCACCTAGTGCAG,8840 fluorescence intensity (a.u.)
14,TAGGAGGTGGCGGCCGGTGGTGGCGGATCCGGCGGCGGGGCGGAGTCACCTAGTGCAG,8840 fluorescence intensity (a.u.)
15,TGCACGTCAGATCATATGCCTGCCCTCTACTAGTAAGTTTCGGAGTCACCTAGTGCAG,10000 fluorescence intensity (a.u.)
16,CGTCCGTCTCCACCCCTTCGCCGGCCGCCGCCCTATTCCCCGGAGTCACCTAGTGCAG,9130 fluorescence intensity (a.u.)
17,TGTATGGTTACTCAGGATTTGAACTTCCAGATTGGGTGGGCGGAGTCACCTAGTGCAG,8180 fluorescence intensity (a.u.)
18,GGTTTAAGGGTGGAAGGGCATATGCGTAACTTCGCATATCCGGAGTCACCTAGTGCAG,8110 fluorescence intensity (a.u.)
19,GGATGTAAATCTTTTTGGAGTGTGGGTCTTATCTTAATATCGGAGTCACCTAGTGCAG,9240 fluorescence intensity (a.u.)
20,TGGGCTGGGTTAGGGACTCATCTGCAATTTCGAGGATTCGCGGAGTCACCTAGTGCAG,9060 fluorescence intensity (a.u.)
21,ACACATCTCACATCGCCATTTGGCCATTTCCTCTCCAATGCGGAGTCACCTAGTGCAG,10100 fluorescence intensity (a.u.)

# Look-ups from the list:
# AGAGCGAACGGCCGTCTGCCACGTCATTTTCGCCGCCCTCCGGAGTCACCTAGTGCAG – binding signal: 8190 fluorescence intensity (a.u.)
# ACACATCTCACATCGCCATTTGGCCATTTCCTCTCCAATGCGGAGTCACCTAGTGCAG – binding signal: 10100 fluorescence intensity (a.u.)

# Later entries.

row,Sequence,binding signal
1,AGCTATTTTACATGTTATTTTTTCATTGTTATCGTACTAACGGAGTCACCTAGTGCAG,10500 fluorescence intensity (a.u.)
2,CCATCTTAATGCGCCCGGCAACAATGTAGTATTTTTTTTTCGGAGTCACCTAGTGCAG,9990 fluorescence intensity (a.u.)
3,CGCGGACAACACTACACTGCATGCCCATTTATTACTCACACGGAGTCACCTAGTGCAG,10800 fluorescence intensity (a.u.)
4,AGGGTCTATTTTTGTAATTTTTTTGGCTGATAGATTATTTCGGAGTCACCTAGTGCAG,10900 fluorescence intensity (a.u.)
5,CCCAAATCCTCCAGATCGTCTTCGTCTTCCACCTCGAGCTCGGAGTCACCTAGTGCAG,9720 fluorescence intensity (a.u.)
6,CATTATTCATCCACCTTTCGTGTACCACACTTCATATATCCGGAGTCACCTAGTGCAG,12000 fluorescence intensity (a.u.)
7,TCCTTCGTCTGTGGCGGCTGGTCAGTACTTGCTTGCATCTCGGAGTCACCTAGTGCAG,11300 fluorescence intensity (a.u.)
8,AATTGTTGACCATTGAGACTTGAGAATTGGGTTTATCAGTCGGAGTCACCTAGTGCAG,8650 fluorescence intensity (a.u.)
9,CCGCATTTACCTCTCACATGTGTCTCGCCACTCGGTCTGACGGAGTCACCTAGTGCAG,12000 fluorescence intensity (a.u.)
10,CCTTCTCGCCGCCGGCTTCTTCTTCTTCTTCCTTGTGTAGCGGAGTCACCTAGTGCAG,10000 fluorescence intensity (a.u.)
11,TCTCCCGCCGCCCGCCGGCCGCGCGCCTCCTCTCCCGCCCCGGAGTCACCTAGTGCAG,8270 fluorescence intensity (a.u.)
12,ACTTTCGATGTACGCTCTGATTGATATTTCTCCAATATCTCGGAGTCACCTAGTGCAG,8290 fluorescence intensity (a.u.)
13,TGGAGGAATTACCGGTCGTGTTTATATTTTCAAACTTTGACGGAGTCACCTAGTGCAG,10700 fluorescence intensity (a.u.)
14,AACCTACCCACGTGTTGGCAAAAGCTTTCTGCATTGTTATCGGAGTCACCTAGTGCAG,10500 fluorescence intensity (a.u.)
15,GGTACTGCGGTTTTCATTTCTCTTAAAGAATTTTCTGGTTCGGAGTCACCTAGTGCAG,8120 fluorescence intensity (a.u.)
16,CCACAAACTCTCTGCCACCGCTGTCTTCTTTCCGTCGACGCGGAGTCACCTAGTGCAG,11000 fluorescence intensity (a.u.)
17,TCGGCATGATAGCATTGAGCAGCTTCTACTTCTGGGTCGGCGGAGTCACCTAGTGCAG,8040 fluorescence intensity (a.u.)
18,CACCCAGCCGCGCCAGCCCACCTATTCGTTCGGCTTCTCCCGGAGTCACCTAGTGCAG,13200 fluorescence intensity (a.u.)
19,GTAATTAAGTACGTATAGACTTTTCCATGTTTAGTTGTCGCGGAGTCACCTAGTGCAG,9080 fluorescence intensity (a.u.)
20,GCGCCGCCGCCGCCGCCCACAGCGCTTTGCTGCCGCCGTCCGGAGTCACCTAGTGCAG,8720 fluorescence intensity (a.u.)
21,CATCTTCAACTTTTGTCTACTCTTTCTCTCTTTAATCCTTCGGAGTCACCTAGTGCAG,11800 fluorescence intensity (a.u.)

row,Sequence,binding signal
1,TCTGGCGAGTAGAGCAGGCGAGGGGAGGGGAGGGGATCCGCGGAGTCACCTAGTGCAG,10500 fluorescence intensity (a.u.)
2,GTATTGTGAATACTCACCCTTGGTCTTATTAACCATTTTTCGGAGTCACCTAGTGCAG,8160 fluorescence intensity (a.u.)
3,ATCCTGTACTTTTTGCTGATCTACATCCTCTTTCATGAACCGGAGTCACCTAGTGCAG,10400 fluorescence intensity (a.u.)
4,GGTTTTCGGAGATGAGTGAGTCGTTATACCTGGTTTTTTTCGGAGTCACCTAGTGCAG,10900 fluorescence intensity (a.u.)
5,TCTCCAGTCTCCACCACCGACTTCTTCGTTTGATCTCGGGCGGAGTCACCTAGTGCAG,8210 fluorescence intensity (a.u.)
6,ATTCCAACTCACTCTCGTCTCCTCTTCTTCTTCTTCAACCCGGAGTCACCTAGTGCAG,9230 fluorescence intensity (a.u.)
7,CTAATTCGTACCCCACAATATATTTTTGCGTGTGTAAATGCGGAGTCACCTAGTGCAG,9300 fluorescence intensity (a.u.)
8,ATAACATGCATAGCCTGGTTCGTCCTTATTGTGGTTTTCCCGGAGTCACCTAGTGCAG,9780 fluorescence intensity (a.u.)
9,CCGCCGCCGCCGCCGCCTCCACGCCGCCGTGCTGAGCCCACGGAGTCACCTAGTGCAG,8460 fluorescence intensity (a.u.)
10,AACAATAAATATTTTTTAGGCCCACGTGTCAGCTACCTTTCGGAGTCACCTAGTGCAG,10700 fluorescence intensity (a.u.)
11,TCTCTTCAAATTATTCCTTTTGCACTATATTTCAACTTGACGGAGTCACCTAGTGCAG,10800 fluorescence intensity (a.u.)
12,ATCCATCACATCACGAAACCACTTCATGTACTCTTAACATCGGAGTCACCTAGTGCAG,8080 fluorescence intensity (a.u.)
13,TAGCTCCATTGTTCGATCTCATCTCCCTTAGCTAGCTACTCGGAGTCACCTAGTGCAG,8130 fluorescence intensity (a.u.)
14,GGTTTTTTCGGTTTTCGGTTGTCAGTTCGGTTTCTGTTTTCGGAGTCACCTAGTGCAG,15400 fluorescence intensity (a.u.)
15,TACCCGGCATTTATTTTCCTCACCCATTTTCTCCACTAAACGGAGTCACCTAGTGCAG,11000 fluorescence intensity (a.u.)
16,AAATTCTGTTCTTGCCTCTGACGAAGCTGTCCATATAGTACGGAGTCACCTAGTGCAG,8070 fluorescence intensity (a.u.)
17,CACCATTTGCACGCTTCCCAATTGCCTCGATGAGACAGAGCGGAGTCACCTAGTGCAG,8490 fluorescence intensity (a.u.)
18,GAGGCCGTTGGAGTTGTCGTCCCTCGCTCGCTTGCATCAACGGAGTCACCTAGTGCAG,9670 fluorescence intensity (a.u.)
19,AATGTAGTCGAGGGTGACTTGACTTGCTCAAGGCCTTCACCGGAGTCACCTAGTGCAG,8230 fluorescence intensity (a.u.)
20,CACACACTCTCCGGTTTTTTTTTCCTTTTCATTTTTTTCTCGGAGTCACCTAGTGCAG,28000 fluorescence intensity (a.u.)
21,GCCTGCGCGCCTGCCTAACTTTGTTTTACTTCGATCCATCCGGAGTCACCTAGTGCAG,9370 fluorescence intensity (a.u.)
